Reference: PMC12848027
No constants are given. Whether binding was seen depends on the method and setting. Binding seen in cells or lysates may run through a third protein. These calls come from enrichment with a bait or labelling near it, and not all partners need be listed. Sequences can lack the tags named with a protein.

Target: T1, Flag-FUT2 (fucosyltransferase 2), expressed in KPC cells (UniProt Q10981)
T1 sequence: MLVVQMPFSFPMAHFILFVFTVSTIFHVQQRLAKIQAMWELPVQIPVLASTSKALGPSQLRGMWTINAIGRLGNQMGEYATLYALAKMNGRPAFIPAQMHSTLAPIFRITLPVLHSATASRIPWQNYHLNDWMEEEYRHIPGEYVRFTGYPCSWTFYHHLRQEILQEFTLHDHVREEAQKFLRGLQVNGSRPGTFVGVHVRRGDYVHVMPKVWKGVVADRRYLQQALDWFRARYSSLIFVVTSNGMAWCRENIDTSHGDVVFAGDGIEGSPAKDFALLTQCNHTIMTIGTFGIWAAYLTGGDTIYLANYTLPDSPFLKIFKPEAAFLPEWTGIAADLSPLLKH
Assay: affinity purification with mass spectrometry; Flag-FUT2 immunoprecipitated from KPC cells using anti-Flag resin beads; precipitated complexes analysed by LC-MS/MS

binding: binds
B1: FBXO2 in KPC cells (protein, UniProt Q80UW2 1-297)
chain: MDGDGDPESVSHPEEASPEEQPEEAGAEASAEEEQLREAEEEEEAEAVEYLAELPEPLLLRVLAELPATELVQACRLVCLRWKELVDGAPLWLLKCQQEGLVPEGSADEERDHWQQFYFLSKRRRNLLRNPCGEEDLEGWSDVEHGGDGWRVEELPGDNGVEFTQDDSVKKYFASSFEWCRKAQVIDLQAEGYWEELLDTTQPAIVVKDWYSGRTDAGSLYELTVRLLSENEDVLAEFATGQVAVPEDGSWMEISHTFIDYGPGVRFVRFEHGGQDSVYWKGWFGARVTNSSVWVEP
